Results are given in words; binding and its absence hold for the method and conditions named. In cells and extracts the contact can be indirect. A yes stands for co-enrichment or nearness to the bait. Other partners may have been found.
What follows are substances tested against RanBP9-3xHA (Ran Binding Protein 9 fused to three copies of the HA tag) (mouse) (UniProt P69566) (assay: affinity purification with mass spectrometry; anti-HA magnetic beads on 1 mg pre-cleared whole lung lysate of LysMBP9X mice, overnight at 4 °C, on-bead trypsin digestion, LC-MS/MS; hits significant (p ≤ 0.05) against HA-IP from WT mice and Ig-IPs).

Protein sequences, listed by entry. Tags and fused reporters are not part of them. Lines headed by an entry give the natural chain unless they say otherwise; changes in a name come on top. Residues count along the entry.
UniProt P37238: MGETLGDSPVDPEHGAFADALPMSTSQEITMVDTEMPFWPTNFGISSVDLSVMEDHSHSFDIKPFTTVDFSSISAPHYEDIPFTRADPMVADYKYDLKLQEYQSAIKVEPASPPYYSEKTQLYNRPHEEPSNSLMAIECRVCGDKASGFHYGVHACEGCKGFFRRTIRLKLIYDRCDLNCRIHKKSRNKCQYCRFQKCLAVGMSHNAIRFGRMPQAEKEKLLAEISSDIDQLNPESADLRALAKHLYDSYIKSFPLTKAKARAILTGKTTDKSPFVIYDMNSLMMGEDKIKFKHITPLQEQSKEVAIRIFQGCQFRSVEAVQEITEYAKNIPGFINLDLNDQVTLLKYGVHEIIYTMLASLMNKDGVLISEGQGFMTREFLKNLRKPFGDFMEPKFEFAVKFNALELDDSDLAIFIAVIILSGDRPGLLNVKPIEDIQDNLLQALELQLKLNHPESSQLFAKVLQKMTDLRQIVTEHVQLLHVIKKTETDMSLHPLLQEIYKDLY
UniProt Q64267: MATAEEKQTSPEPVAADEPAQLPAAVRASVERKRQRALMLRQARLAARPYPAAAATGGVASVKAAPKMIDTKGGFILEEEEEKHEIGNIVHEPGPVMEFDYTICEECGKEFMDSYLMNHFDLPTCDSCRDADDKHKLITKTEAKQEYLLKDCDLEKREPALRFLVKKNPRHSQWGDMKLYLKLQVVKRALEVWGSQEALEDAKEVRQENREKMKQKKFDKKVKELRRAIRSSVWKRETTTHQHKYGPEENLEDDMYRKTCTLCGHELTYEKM
UniProt Q9CQL1: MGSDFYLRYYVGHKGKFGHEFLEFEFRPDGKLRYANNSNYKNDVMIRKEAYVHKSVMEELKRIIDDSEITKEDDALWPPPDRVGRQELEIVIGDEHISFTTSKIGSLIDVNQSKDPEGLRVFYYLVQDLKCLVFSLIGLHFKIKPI
UniProt Q91VR2: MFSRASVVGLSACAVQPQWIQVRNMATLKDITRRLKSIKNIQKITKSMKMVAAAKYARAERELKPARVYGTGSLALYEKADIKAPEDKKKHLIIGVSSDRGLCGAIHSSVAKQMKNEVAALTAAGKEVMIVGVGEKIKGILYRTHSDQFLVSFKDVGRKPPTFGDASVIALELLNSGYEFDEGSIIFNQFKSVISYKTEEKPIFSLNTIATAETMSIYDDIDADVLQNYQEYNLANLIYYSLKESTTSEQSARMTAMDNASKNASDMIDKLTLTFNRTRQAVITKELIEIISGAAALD
UniProt A0A2I3BPN6: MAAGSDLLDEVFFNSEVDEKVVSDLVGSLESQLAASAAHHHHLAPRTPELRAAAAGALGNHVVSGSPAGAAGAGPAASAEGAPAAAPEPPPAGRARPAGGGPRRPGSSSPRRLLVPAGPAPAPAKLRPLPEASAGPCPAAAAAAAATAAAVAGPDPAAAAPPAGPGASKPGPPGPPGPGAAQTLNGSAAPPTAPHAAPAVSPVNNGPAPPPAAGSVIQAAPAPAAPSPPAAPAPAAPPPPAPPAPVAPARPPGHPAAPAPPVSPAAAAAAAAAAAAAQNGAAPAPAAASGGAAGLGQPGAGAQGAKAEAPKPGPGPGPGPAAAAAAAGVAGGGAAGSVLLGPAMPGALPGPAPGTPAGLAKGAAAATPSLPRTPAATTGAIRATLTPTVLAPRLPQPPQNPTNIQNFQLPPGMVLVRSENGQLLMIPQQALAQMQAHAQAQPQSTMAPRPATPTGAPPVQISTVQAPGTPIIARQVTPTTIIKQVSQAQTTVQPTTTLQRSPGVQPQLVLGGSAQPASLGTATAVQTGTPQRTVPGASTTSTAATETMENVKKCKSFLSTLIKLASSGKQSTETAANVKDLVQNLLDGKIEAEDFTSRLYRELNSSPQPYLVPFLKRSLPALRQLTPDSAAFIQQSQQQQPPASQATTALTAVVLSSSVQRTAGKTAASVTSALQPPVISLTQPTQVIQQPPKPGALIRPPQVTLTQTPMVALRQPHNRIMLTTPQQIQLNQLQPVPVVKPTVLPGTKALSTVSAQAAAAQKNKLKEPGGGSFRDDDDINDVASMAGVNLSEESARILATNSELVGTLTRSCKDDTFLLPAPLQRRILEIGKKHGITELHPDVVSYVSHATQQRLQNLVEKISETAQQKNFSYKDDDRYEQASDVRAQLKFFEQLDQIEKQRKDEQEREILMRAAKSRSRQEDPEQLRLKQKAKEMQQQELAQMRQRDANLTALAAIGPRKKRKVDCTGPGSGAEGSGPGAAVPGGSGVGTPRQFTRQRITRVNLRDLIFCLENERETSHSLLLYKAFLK
UniProt Q91WQ5: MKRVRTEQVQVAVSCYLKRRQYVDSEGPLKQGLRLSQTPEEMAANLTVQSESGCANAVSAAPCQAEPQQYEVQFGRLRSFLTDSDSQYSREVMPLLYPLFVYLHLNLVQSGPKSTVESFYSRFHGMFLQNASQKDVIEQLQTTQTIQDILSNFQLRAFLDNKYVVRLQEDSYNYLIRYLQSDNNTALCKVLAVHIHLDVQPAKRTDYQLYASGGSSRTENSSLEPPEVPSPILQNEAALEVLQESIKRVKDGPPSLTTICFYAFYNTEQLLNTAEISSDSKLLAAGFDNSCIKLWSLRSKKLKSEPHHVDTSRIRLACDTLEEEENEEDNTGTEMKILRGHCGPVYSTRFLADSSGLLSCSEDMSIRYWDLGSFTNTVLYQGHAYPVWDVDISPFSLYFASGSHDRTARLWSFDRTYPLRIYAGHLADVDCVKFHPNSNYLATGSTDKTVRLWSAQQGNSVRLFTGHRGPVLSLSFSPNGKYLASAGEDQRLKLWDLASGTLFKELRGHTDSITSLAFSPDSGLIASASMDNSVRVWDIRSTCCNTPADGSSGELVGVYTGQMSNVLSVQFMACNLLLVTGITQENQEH
UniProt O35495: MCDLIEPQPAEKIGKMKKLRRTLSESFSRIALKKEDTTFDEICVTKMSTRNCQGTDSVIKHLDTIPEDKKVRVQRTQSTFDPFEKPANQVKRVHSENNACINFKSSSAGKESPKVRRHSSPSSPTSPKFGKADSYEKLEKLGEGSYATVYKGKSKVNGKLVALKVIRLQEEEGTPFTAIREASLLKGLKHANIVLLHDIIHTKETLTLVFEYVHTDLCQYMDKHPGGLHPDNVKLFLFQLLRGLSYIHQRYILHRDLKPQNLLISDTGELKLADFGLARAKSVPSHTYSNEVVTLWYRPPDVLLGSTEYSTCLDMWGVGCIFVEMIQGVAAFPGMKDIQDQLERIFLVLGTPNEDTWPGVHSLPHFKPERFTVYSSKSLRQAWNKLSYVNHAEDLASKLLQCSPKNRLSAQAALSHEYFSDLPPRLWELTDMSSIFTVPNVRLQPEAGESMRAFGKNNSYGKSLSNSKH
UniProt P40645: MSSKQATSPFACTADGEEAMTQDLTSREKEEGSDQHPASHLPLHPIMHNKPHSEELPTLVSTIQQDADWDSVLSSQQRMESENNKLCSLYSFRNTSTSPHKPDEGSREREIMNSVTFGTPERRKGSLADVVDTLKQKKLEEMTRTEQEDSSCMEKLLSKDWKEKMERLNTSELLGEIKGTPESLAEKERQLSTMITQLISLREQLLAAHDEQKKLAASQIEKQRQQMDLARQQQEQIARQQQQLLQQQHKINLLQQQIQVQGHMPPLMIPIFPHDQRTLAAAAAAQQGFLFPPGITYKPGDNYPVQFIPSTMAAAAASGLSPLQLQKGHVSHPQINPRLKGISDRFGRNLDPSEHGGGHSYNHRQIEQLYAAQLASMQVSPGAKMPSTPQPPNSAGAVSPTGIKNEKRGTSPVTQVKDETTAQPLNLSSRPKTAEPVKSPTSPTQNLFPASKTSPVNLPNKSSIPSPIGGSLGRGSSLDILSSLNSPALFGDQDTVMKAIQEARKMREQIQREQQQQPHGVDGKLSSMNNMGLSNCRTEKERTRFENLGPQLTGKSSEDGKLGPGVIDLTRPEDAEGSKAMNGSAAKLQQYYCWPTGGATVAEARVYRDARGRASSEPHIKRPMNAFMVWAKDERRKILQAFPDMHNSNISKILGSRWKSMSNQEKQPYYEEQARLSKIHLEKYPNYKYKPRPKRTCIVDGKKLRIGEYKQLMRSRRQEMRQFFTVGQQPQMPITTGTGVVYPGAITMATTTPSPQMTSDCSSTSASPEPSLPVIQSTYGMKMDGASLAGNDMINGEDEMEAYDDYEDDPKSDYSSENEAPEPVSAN
UniProt P62305: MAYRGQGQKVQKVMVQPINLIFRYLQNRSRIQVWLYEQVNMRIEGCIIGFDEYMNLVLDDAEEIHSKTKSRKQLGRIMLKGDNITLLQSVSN
UniProt Q8C6G8: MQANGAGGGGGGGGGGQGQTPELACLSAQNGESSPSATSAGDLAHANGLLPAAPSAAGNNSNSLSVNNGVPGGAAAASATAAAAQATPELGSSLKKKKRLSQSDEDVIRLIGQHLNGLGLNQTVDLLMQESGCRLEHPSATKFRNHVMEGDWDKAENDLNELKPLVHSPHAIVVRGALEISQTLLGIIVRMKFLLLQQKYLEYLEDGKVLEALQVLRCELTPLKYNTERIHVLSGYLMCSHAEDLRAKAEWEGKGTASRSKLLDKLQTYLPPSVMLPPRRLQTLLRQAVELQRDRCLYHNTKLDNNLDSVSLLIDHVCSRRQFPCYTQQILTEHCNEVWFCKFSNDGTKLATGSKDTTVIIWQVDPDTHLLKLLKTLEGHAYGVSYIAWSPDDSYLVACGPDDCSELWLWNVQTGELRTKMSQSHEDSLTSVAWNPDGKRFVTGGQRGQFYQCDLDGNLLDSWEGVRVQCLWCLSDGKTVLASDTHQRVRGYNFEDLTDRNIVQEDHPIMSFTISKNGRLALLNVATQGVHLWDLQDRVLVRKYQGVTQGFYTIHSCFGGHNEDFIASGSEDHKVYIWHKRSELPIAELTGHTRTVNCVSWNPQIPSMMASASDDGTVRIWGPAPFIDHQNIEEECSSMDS
UniProt Q99KP6: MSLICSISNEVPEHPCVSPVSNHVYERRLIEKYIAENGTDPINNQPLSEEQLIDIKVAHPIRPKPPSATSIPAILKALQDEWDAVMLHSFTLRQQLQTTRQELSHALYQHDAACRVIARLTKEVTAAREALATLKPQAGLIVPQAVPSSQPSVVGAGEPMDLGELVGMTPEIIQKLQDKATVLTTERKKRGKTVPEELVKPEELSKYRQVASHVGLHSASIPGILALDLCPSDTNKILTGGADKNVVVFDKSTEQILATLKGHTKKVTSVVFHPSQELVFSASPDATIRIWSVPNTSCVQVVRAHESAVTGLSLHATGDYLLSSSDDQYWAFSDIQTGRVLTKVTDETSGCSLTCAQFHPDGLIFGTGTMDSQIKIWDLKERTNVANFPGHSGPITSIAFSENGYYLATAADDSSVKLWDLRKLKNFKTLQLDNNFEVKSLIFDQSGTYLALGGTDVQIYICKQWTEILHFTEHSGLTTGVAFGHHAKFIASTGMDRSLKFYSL
UniProt Q01768: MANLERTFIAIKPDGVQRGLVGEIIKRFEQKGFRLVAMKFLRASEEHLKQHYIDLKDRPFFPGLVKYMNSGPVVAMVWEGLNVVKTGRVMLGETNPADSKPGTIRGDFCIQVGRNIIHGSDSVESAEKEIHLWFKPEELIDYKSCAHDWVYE
UniProt Q9JLJ2: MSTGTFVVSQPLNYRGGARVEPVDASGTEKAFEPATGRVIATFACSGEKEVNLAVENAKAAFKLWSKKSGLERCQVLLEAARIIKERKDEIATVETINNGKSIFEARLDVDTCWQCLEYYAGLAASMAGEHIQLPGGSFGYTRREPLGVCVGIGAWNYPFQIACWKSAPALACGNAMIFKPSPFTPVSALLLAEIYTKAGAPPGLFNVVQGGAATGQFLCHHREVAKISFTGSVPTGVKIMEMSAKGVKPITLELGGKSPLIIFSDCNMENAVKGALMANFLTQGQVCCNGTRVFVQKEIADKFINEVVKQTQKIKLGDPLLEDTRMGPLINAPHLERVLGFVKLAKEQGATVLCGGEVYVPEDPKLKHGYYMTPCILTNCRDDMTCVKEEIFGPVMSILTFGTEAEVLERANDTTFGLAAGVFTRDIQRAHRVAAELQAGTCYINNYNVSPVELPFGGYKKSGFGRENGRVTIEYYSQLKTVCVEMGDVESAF
UniProt P48036: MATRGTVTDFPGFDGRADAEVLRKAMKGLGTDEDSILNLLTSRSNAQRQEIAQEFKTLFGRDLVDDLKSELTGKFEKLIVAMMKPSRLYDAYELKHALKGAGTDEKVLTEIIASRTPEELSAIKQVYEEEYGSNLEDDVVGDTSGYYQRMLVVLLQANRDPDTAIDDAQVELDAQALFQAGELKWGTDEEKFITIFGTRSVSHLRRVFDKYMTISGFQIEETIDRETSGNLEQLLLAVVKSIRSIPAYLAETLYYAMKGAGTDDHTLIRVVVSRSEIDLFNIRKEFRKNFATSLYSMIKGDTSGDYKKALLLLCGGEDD
UniProt P01887, residues 21-119: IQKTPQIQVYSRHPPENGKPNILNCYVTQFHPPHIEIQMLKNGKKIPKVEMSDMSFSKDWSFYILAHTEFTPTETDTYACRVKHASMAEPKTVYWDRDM
UniProt P52503, residues 21-116: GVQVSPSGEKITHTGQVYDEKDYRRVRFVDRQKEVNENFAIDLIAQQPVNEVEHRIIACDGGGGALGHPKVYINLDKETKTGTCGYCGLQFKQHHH
UniProt P20065: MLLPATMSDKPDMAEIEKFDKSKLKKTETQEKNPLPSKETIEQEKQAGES

binding, binds:
Aspm (Assembly factor for spindle microtubules 3) (from UniProt Q8CJ27 1-3122)
Pparg (Peroxisome Proliferator Activated Receptor Gamma) (from UniProt P37238 1-505)
Rpa1 (Replication Protein A1) (from UniProt Q8VEE4 1-623)
Polr1e (from UniProt Q8K202 1-482)
Armc8 (Armadillo repeat containing 8) (from UniProt Q9DBR3 1-673)
Xpa (Xeroderma pigmentosum group a-complementing protein) (from UniProt Q64267 1-272)
Tho2 (member of the THO complex) (from UniProt B1AZI6 1-1594)
Magohb (MAGO homolog b) (from UniProt Q9CQL1 1-146)
Ndufs2 (from UniProt Q91WD5 34-463)
Atp5c1 (from UniProt Q91VR2)
Eif4a3 (Eukaryotic Translation Initiation Factor 4a3) (from UniProt Q91VC3 1-411)
High temperature requirement protein 2 (HtrA2) (from UniProt Q9JIY5)
Taf4 (TATA-box binding associated factor 4) (from UniProt A0A2I3BPN6 1-1030)
Taf5l (TATA-box binding associated factor 5 like) (from UniProt Q91WQ5 1-589)
RanBP10 (Ran Binding Protein 10) (from UniProt Q6VN19 1-620)
Wdr26 (WD repeat domain 26), isoform of 625 amino acids (from UniProt E0CYH4)
Cdk14 (Cyclin-dependent kinase 14) (from UniProt O35495 1-469)
Sox6 (SRY-related HMG-box 2) (from UniProt P40645 1-827)
Ints5 (Integrator complex subunit 5) (from UniProt Q8CHT3 1-1018)
Snrpe (from UniProt P62305 1-92)
Snrp200 (from UniProt Q6P4T2 1-2136)
Wdr26 (WD repeat domain 26), isoform of 725 amino acids (from UniProt Q8C6G8)
Prpf19 (Pre-mRNA processing factor 19) (from UniProt Q99KP6 1-504)
Rictor (RPTOR independent companion of MTOR complex 2) (from UniProt Q6QI06 1-1708)
Ncapd3 (Non-SMC condensing II complex subunit d3) (from UniProt Q6ZQK0 1-1506)
Tspo (from UniProt P50637 1-169)
Prr5l (Proline Rich 5 Like) (from UniProt A2AVJ5 1-370)

The substances below were run against RanBP9-V5 (Ran Binding Protein 9 with a V5 tag at the C-terminus) (mouse) (UniProt P69566) (assay: affinity purification with mass spectrometry; anti-V5 magnetic beads on 1 mg pre-cleared whole lung lysate of LysMBP9X mice, overnight at 4 °C, on-bead trypsin digestion, LC-MS/MS; hits significant (p ≤ 0.05) against V5-IP from WT mice and Ig-IPs).

binding, binds:
Nme2 (Nme/Nme23 Nucleoside Diphosphate Kinase 2) (from UniProt Q01768 1-152)
Aars1 (Alanyl-tRNA Synthetase 1) (from UniProt Q8BGQ7 1-968)
Aldh9a1 (Aldehyde Dehydrogenase 9 Family Member A1) (from UniProt Q9JLJ2 1-494)
Armc8 (Armadillo repeat containing 8) (from UniProt Q9DBR3 1-673)
Cbr2 (from UniProt P08074 1-244)
Hk1 (Hexokinase 1) (from UniProt P17710-3)
Lrrfip2 (Leucine-Rich Repeat Flightless Interacting Protein 2) (from UniProt Q91WK0 1-415)
Anxa5 (Annexin A5) (from UniProt P48036 1-319)
B2m (Beta-2 microglobulin) (from UniProt P01887 21-119)
Prkdc (Protein Kinase, DNA-activated, Catalytic Subunit) (from UniProt P97313 1-4128)
RanBP10 (Ran Binding Protein 10) (from UniProt Q6VN19 1-620)
Wdr26 (WD repeat domain 26), isoform of 625 amino acids (from UniProt E0CYH4)
Irgm2 (from UniProt A0A140LIF8 1-395)
Itpr2 (from UniProt Q9Z329 1-2701)
Adk (Adenosine Kinase) (from UniProt P55264 1-361)
Wdr26 (WD repeat domain 26), isoform of 725 amino acids (from UniProt Q8C6G8)
Ndufs6 (from UniProt P52503 21-116)
Spr (from UniProt Q64105 1-261)
Akr1b1 (Aldo-Keto Reductase Family 1 Member B) (from UniProt P45376 1-316)
Tmsb4x (from UniProt P20065 1-50)
Acadsb (from UniProt Q9DBL1 34-432)
